In paper PMC12921443 one finds binding data, which are given here for 3 molecules.

Results are given in words; binding and its absence hold for the method and conditions named. Some entries that bind do so weakly or less than the wild type.

First the molecules themselves.
T1: MITOGEN … PROTEIN KINASE 3 (MPK3), full-length (Arabidopsis) (UniProt Q39023)
T1 sequence: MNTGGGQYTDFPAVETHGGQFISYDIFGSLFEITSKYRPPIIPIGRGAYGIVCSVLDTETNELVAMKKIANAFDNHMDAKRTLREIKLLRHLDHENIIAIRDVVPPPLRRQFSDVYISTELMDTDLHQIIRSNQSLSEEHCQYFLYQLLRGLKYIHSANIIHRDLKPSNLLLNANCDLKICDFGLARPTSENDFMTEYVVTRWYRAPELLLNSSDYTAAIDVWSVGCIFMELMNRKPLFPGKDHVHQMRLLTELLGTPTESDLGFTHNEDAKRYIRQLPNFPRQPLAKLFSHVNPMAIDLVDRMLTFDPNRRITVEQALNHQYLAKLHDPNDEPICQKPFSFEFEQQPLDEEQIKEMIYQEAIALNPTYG

B1: MYB93 C-terminal region, amino acids 156-365 (MYB93-C468) (domain or fragment, UniProt Q9S9Z2 156-365)
chain: SSMQGEAAQLANLQYLQRMFNSSASLTNNNGNNFSPSSILDIDQHHAMNLLNSMVSWNKDQNPAFDPVLELEANDQNQDLFPLGFIIDQPTQPLQQQKYHLNNSPSELPSQGDPLLDHVPFSLQTPLNSEDHFIDNLVKHPTDHEHEHDDNPSSWVLPSLIDNNPKTVTSSLPHNNPADASSSSSYGGCEAASFYWPDICFDESLMNVIS
B2: MYB93 full-length (Arabidopsis MYB93 transcription factor) (protein, UniProt Q9S9Z2 1-365)
chain: MGRSPCCDENGLKKGPWTPEEDQKLIDYIHKHGHGSWRALPKLADLNRCGKSCRLRWTNYLRPDIKRGKFSAEEEQTILHLHSILGNKWSAIATHLQGRTDNEIKNFWNTHLKKKLIQMGIDPVTHQPRTDLFASLPQLIALANLKDLIEQTSQFSSMQGEAAQLANLQYLQRMFNSSASLTNNNGNNFSPSSILDIDQHHAMNLLNSMVSWNKDQNPAFDPVLELEANDQNQDLFPLGFIIDQPTQPLQQQKYHLNNSPSELPSQGDPLLDHVPFSLQTPLNSEDHFIDNLVKHPTDHEHEHDDNPSSWVLPSLIDNNPKTVTSSLPHNNPADASSSSSYGGCEAASFYWPDICFDESLMNVIS
B3: MYB93 C-terminal region, amino acids 115-365 (MYB93-C345) (domain or fragment, UniProt Q9S9Z2 115-365)
chain: KLIQMGIDPVTHQPRTDLFASLPQLIALANLKDLIEQTSQFSSMQGEAAQLANLQYLQRMFNSSASLTNNNGNNFSPSSILDIDQHHAMNLLNSMVSWNKDQNPAFDPVLELEANDQNQDLFPLGFIIDQPTQPLQQQKYHLNNSPSELPSQGDPLLDHVPFSLQTPLNSEDHFIDNLVKHPTDHEHEHDDNPSSWVLPSLIDNNPKTVTSSLPHNNPADASSSSSYGGCEAASFYWPDICFDESLMNVIS

The experiment concerns the target T1, MITOGEN … PROTEIN KINASE 3 (MPK3), full-length (Arabidopsis). Briefly: two-hybrid; MYB93 constructs in pGADT7, MPK3 in pGBKT7; S. cerevisiae AH109; growth on SD -AHLW agar plates, 2-3 days at 30 °C; empty pGBKT7 as control.
On to B1, for which the binding entry is on record as “no binding”. For B2 the value was “binds”; for B3, “no binding”.
